Reference: patent US20250270270A1
No constants are given. Whether binding was seen depends on the method and setting. Some entries that bind do so weakly or less than the wild type.

Chains of the proteins cited; added tags and fusions are not shown. Lines headed by an entry give the natural chain unless they say otherwise; changes in a name come on top.
UniProt P06756: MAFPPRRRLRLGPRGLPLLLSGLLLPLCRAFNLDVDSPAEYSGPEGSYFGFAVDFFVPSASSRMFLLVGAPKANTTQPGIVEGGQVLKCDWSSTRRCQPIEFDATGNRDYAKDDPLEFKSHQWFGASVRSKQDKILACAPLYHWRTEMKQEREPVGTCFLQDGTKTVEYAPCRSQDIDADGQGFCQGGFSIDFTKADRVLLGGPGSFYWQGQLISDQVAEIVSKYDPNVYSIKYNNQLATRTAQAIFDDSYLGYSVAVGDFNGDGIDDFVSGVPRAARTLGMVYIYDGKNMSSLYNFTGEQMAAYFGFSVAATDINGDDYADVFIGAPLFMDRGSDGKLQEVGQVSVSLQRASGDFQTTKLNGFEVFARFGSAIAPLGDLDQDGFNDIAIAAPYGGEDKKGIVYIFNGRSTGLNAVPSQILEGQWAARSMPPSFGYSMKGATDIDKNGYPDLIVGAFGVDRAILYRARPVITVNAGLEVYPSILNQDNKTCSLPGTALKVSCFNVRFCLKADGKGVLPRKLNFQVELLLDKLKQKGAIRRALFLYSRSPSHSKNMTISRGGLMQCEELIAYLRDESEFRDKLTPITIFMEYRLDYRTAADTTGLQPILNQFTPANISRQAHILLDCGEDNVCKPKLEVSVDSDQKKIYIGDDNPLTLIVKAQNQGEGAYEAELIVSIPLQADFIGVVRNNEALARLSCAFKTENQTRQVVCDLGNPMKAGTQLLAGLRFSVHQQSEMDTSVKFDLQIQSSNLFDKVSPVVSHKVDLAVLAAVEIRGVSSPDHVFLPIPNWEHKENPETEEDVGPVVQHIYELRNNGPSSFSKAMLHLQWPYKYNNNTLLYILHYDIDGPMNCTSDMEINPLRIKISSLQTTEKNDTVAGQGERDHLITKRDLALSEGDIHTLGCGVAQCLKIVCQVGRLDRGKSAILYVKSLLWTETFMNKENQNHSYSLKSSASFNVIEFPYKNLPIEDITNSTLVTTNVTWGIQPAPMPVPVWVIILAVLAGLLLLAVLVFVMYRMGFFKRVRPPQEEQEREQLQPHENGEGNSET

Key:
[1] = biological target: recombinant integrin αVβ3 (R&D Systems) (UniProt P06756); assay: plate ELISA (FIG. 14a)
[2] = biological target: recombinant integrin αVβ6 (R&D Systems) (UniProt P06756); assay: plate ELISA (FIG. 14a)
[3] = biological target: recombinant integrin αVβ3 (R&D Systems) (UniProt P06756); assay: integrin binding assay, told in the summary
[4] = biological target: recombinant integrin αVβ6 (R&D Systems) (UniProt P06756); assay: integrin binding assay, told in the summary
[5] = biological target: recombinant integrin αVβ3 (R&D Systems) (UniProt P06756); assay: plate ELISA, detection with KU32-52 (FIG. 14a)
[6] = biological target: recombinant integrin αVβ6 (R&D Systems) (UniProt P06756); assay: plate ELISA, detection with KU32-52 (FIG. 14a)
[7] = biological target: recombinant integrin αVβ3 (R&D Systems) (UniProt P06756); assay: plate ELISA, integrin coated at 1 µg/mL, detection with KU32-52, OD 450 nm
[8] = biological target: recombinant integrin αVβ6 (R&D Systems) (UniProt P06756); assay: as above

Measured: binding

B1: recombinant human IL-32θ(A94V) (ligand, not shown: small tags and cut ends)
chain: MCFPKVLSDDMKKLKARMHQAIERFYDKMQNAESGRGQVMSSLAELEELTPLLEKERDGLRCRGNRSPVPDVEDPATEEPGESFCDKVMRWFQVMLQRLQTWWHGVLAWVKEKVVALVHAVQALWKQFQSFCCSLSELFMSSFQSYGAPRGDKEELTPQKCSEPQSSK
binds: all assays above
